Assay results taken from paper PMC7672472 (2020).

Tested on: MA-46 (MA) (DNA, aptamer) CTTACGACTCAGGCATTTTGCCGGGTAACGAAGTTACTGTCGTAAG
Assay: ITC
Settings: 20 mM Na+, 5 mM Mg2+

binding: no
SMILES: CN1CC[C@]23c4c5ccc(O)c4O[C@H]2[C@@H](O)C=C[C@H]3[C@H]1C5
